# PubChem BioAssay AID493014 (National Center for Advancing Translational Sciences (NCATS), 2011)
# In all, about 340,000 compounds went through this assay and about 170 (0.05%) were called active. This list was built around the results that the source calls inconclusive (neither active nor inactive); the mix of calls is not that of the screen. Calls come from the whole dose curve; as a rule, active = well fitted inhibition curve with a large enough effect in the signal ratio, with a control signal flat (not every such curve was filed as active); inconclusive = small, poorly fitted or top-dose-only effect, or effect the other way, or a change in a side signal; inactive = flat fitted curve, though single readings scatter; the % refers to the signal ratio. A potency beside an inconclusive call is a rough fit, not a confirmed value.
# Test: qHTS Assay to Find Inhibitors of Chronic Active B-Cell Receptor Signaling;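 for activity change, negative = inhibition: plate controls were basal doxycycline-induced cells for no effect and cells given 10 µM MG132 for full effect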
# Conditions: ABC-DLBCL IkBa-CBG/CBR reporter, luminescence ratio (green luciferase fused to IkBa over red control in TMD8 lymphoma cells), 4 h; activity change, negative = inhibition: at 46.1 µM (top of the series)
# Procedure, shortened: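 Cell line TMD8 (human ABC DLBCL), stably expressing tet-inducible CBG68-IkBa fusion and CBR; IMDM/0.5% FBS; cpd up to 46 uM; dox induction, 4 h, 37C/5% CO2; dual luminescence; green/red ratio; MG132 control.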
# Potency is the fitted concentration of half-maximal effect.
Structure (SMILES),"activity change, negative = inhibition",Potency
CCC(C)[C@H](NC(=O)N1CCn2c1nc1ccccc12)C(=O)NCC1CCCO1 (stereo not given in full),inconclusive: -0.541%,
Cc1oncc1C(=O)Nc1ccc(C(F)(F)F)cc1,,"inconclusive: 15.8 µM [falling, partial curve]"
COc1ccc(NC(=O)c2ccc(NC(=O)c3cccs3)cc2)cc1,inconclusive: 2.74%,
CCCOC(=O)c1cccc(NC(=O)c2cccnc2)c1,inactive,
Cc1cccc2cc(CN(CCN(C)C)C(=S)NCc3ccco3)c(=O)[nH]c12,,"inconclusive: 29.1 µM [falling, single point]"
O=C(COC(=O)c1ccc(O)cc1)Nc1cc(C(F)(F)F)ccc1N1CCOCC1,inactive,
C/C=C\C=C/C(=O)Nc1cccc(C2=NOC3(C2)C[C@@H](C(N)=O)N(C(=O)c2ccccc2)C3)c1 (stereo not given in full),,"inconclusive: 17.8 µM [falling, partial curve, poor fit]"
Cc1nn(Cc2ccc(Cl)cc2Cl)c(Cl)c1/C=N/NC(=O)CNc1cccc(C(F)(F)F)c1,inconclusive: 12.1%,
CC1CCc2cc(F)ccc2N1C(=O)CSc1nnc2c(n1)[nH]c1ccc(F)cc12 (stereo not given),inactive,
COc1ccc(C(Cl)=C(c2ccc(OC)cc2)c2ccc(OC)cc2)cc1,,"inconclusive: 11.6 µM [rising, partial curve, poor fit]"
COc1ccccc1NC(=S)NNC(=O)c1nn(C)c(C)c1Cl,,"inconclusive: 3.26 µM [falling, partial curve, poor fit]"
CCN(C[C@H]1N[C@@](Cc2ccccc2)(C(=O)OC)[C@H]2C(=O)N(Cc3ccccc3)C(=O)[C@@H]12)C(=O)c1ccccc1,inactive,
Cc1ccc(-c2n[nH]c(=S)n2/N=C/c2c(C)nn(-c3ccccc3)c2C)cc1,inconclusive: 3.83%,
CCC(CO)Oc1cc(NCc2cccc(C(F)(F)F)c2)c2ncn(C(C)C)c2c1 (stereo not given),inactive,
N#Cc1nc(Cc2ccccc2)oc1NCCc1ccccc1,inconclusive: -7.07%,
C#CCOc1ccc(/C=C2/C(=O)NN(c3ccc(F)cc3)C2=O)cc1OC,inconclusive: 0.0628%,
Cc1ccc(S(=O)(=O)N2CCN(C(=O)CC(C)C)CC2)cc1,,"inconclusive: 35.5 µM [falling, single point]"
Cc1ccc(-c2nn(-c3ccccc3)cc2/C=N/n2c(-c3cccs3)n[nH]c2=S)cc1,inconclusive: -5.03%,
Cc1cc(N2CCOCC2)c2c(N)cc(C)c(C)c2n1,inconclusive: 0.928%,
Cc1ccccc1C(=O)Nc1ccc(C(=O)N/N=C/c2ccc(O)c(Br)c2)cc1,inconclusive: -0.956%,
NS(=O)(=O)c1ccc(NC(=O)Nc2cccc3ccccc23)cc1,inconclusive: -19.3%,
Cc1nc(CS(=O)c2ccc(Cl)cc2)cc(NCc2ccc(Cl)cc2Cl)n1 (stereo not given),inactive,
COc1ccccc1Nc1nc2c(C)cccc2cc1C#N,inactive,
COc1ccc2[nH]c3c(c2c1)CCN1C(=O)C(CC(=O)NC(C)(C)C)C[C@H](C(=O)N2CCCCC2)[C@@]31C (stereo not given in full),inconclusive: -0.0903%,
CNc1ccc(OC(F)F)cc1C(=O)c1ccccc1,inconclusive: 6.98%,

# Some values from the entries so far.
# Cc1ccc(-c2nn(-c3ccccc3)cc2/C=N/n2c(-c3cccs3)n[nH]c2=S)cc1 – activity change, negative = inhibition: inconclusive: -5.03%
# COc1ccccc1Nc1nc2c(C)cccc2cc1C#N – activity change, negative = inhibition: inactive
# CNc1ccc(OC(F)F)cc1C(=O)c1ccccc1 – activity change, negative = inhibition: inconclusive: 6.98%

# (list continues)

Structure (SMILES),"activity change, negative = inhibition",Potency
Cc1cccc2sc(NC(=O)CCNC(=O)c3ccco3)nc12,inconclusive: -2.97%,
Cc1cc(C(=O)CSc2nnc(-c3cccc(F)c3)n2N)c(C)n1Cc1ccc2c(c1)OCO2,inconclusive: -2.17%,
CCOC(=O)N1C2=NC(C(=O)OC)=C(C(=O)OC)[C@@H]3N(C)c4ccccc4[C@]23C[C@H]1C(=O)OC,inconclusive: 1.34%,
COC(=O)c1cn(CCOc2ccccc2F)c2ccccc12,inconclusive: -27.2%,
CCn1cc(C(=O)NCCN(C)C)c(=O)c2cc(F)c(N3CCN(C)CC3)cc21,inconclusive: 0.938%,
Cc1cc(O)ccc1Nc1nc(-c2cccs2)cs1,inconclusive: -0.624%,
CCn1c(SCC(=O)N2CCOCC2)nc2oc3c(Cl)cc(Cl)cc3c(=O)c2c1=O,,"inconclusive: 1 µM [rising, full curve, poor fit]"
O=C(C[C@@H]1C/C=C\CC[C@H](Cc2ccc(F)cc2)C(=O)OC[C@@H]2CCCN2C1=O)N[C@H](CO)Cc1ccccc1,inconclusive: -7.95%,
Cn1c(=O)oc2cc(S(=O)(=O)Nc3ccccc3)ccc21,inactive,
Cc1nc2ccc(NC(=O)c3ccc(Br)o3)cc2s1,inconclusive: -18.4%,
Oc1cccc(NC(=S)N=Nc2c(O)[nH]c3ccccc23)c1,,"inconclusive: 31.6 µM [rising, single point]"
O=C(CSCc1ccccc1)Nc1ccc2c(c1)OCO2,inactive,
COc1cc(OC)c(OC)cc1CN1CCN(S(=O)(=O)c2ccc(F)cc2)CC1,,"inconclusive: 29.1 µM [falling, single point]"
CC1=C(C(=O)OCC2CCCO2)C(c2ccc(Cl)c(Cl)c2)NC(=O)N1 (stereo not given),,"inconclusive: 12.6 µM [falling, partial curve]"
COc1ccc(C2CCCN2C(=S)Nc2ccc(C)cc2C)cc1OC (stereo not given),inactive,
Nc1cccnc1Sc1ccc([N+](=O)[O-])cn1,inactive,
O=C(c1c[nH]c2ccccc12)N1CCN(Cc2ccccc2)CC1,inconclusive: -4.65%,
O=C(CSc1nnc(-c2ccccn2)o1)Nc1ccccc1Cl,,"inconclusive: 12.6 µM [falling, partial curve]"
C=CCNC(=O)c1cc(-c2ccccc2O)on1,,"inconclusive: 4.11 µM [rising, full curve]"
Cc1ccc2nc(SCC(=O)Nc3oc(C)c4c(C)n[nH]c(=O)c34)[nH]c2c1,inconclusive: 1.1%,
CCc1[nH]nc2c1C(C1C=CCCC1)C(C#N)=C(N)O2 (stereo not given),inconclusive: -24.1%,
CN(C(=O)CCCN1C(=O)c2cccc3cccc(c23)C1=O)c1ccccc1,,"inconclusive: 18.4 µM [rising, partial curve]"
Cc1cccc(NC(=O)CCSc2ccccc2)c1C,inconclusive: -25.7%,
CCOC1(OCC)C(c2ccc(Cl)cc2)C(C#N)(C#N)C1(OCC)OCC (stereo not given),inconclusive: -2.51%,
Cc1cc(NCCCCO)n2c(nc3ccccc32)c1C#N,,"inconclusive: 10.3 µM [rising, partial curve, poor fit]"
